Source: PubChem BioAssay AID1347076 (National Center for Advancing Translational Sciences (NCATS), 2019)
Where “and” joins values, the source holds several entries; their conditions need not be identical. Equal entries are not always repeated. Hit rate of the full screen: of about 400,000 compounds, about 13,000 (3.2%) were called active. This list was built around the results that the source calls inconclusive (neither active nor inactive); the mix of calls is not that of the screen. Calls follow the shape of the dose curve; as a rule, active = well fitted cell-killing curve with a large enough effect; inconclusive = small, poorly fitted or top-dose-only effect, or effect the other way; inactive = flat fitted curve, though single readings scatter. A potency beside an inconclusive call is a rough fit, not a confirmed value.

Test: qHTS assay for MDR1-selective chemotherapeutics: Primary screen using the drug-selected MDR subline cells KB-V1; also: nearly all actives have a fitted effect of over 60% in size
Settings: KB-V1 MDR cells viability, CellTiter-Glo, 72 h; activity change, negative = cytotoxicity: at 46.1 µM (top of the series)
Procedure, shortened: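 Following 72 h at 37 degrees C with compound, KB-V1 cell viability was read by CellTiter-Glo luminescence, medium being phenol-red-free DMEM plus 10% FBS; concentration-response parameters came from normalized, curve-fitted qHTS data.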
% is scaled to controls: 0 for no effect and ±100 for the full control effect; potency is read from the fitted curve at half-maximal effect.

Row | Compound | Potency | activity change, negative = cytotoxicity
1 | CCN1/C(=C/C(C)=C/c2sc3ccccc3[n+]2CC)Sc2ccccc21 | active: 20.6 µM and inconclusive: 29.1 µM [cytotoxic, single point] | –
2 | O=[N+]([O-])c1ccc(CSc2ccc(S(=O)(=O)N3CCCCCC3)cn2)cc1 | inconclusive: 29.1 µM [cytotoxic, single point] | –
3 | O=C(COc1c(Br)cc(Br)c2cccnc12)Nc1ccccc1F | – | inactive: -2.43%
4 | CN(C)CCNc1ncnc2c1cnn2-c1cccc(Cl)c1 | – | inactive: 2.41%
5 | COc1ccc(-n2ncc(C(C)NS(=O)(=O)c3cc(C)sc3C)c2C)cc1 (stereo not given) | inconclusive: 20.6 µM [cytotoxic, single point] | –
6 | Cc1cc(NS(=O)(=O)c2ccc(NC(=O)CCSc3ccc(F)cc3)cc2)nc(C)n1 | – | inactive: 5.81%
7 | Cc1ccc(CNc2ccc3c(c2)OCO3)cc1 | inconclusive: 9.2 µM [cytotoxic, partial curve] | –
8 | COC(=O)n1c(=O)oc2cc(S(=O)(=O)N3CCCCC3)ccc21 | inconclusive: 20.6 µM [cytotoxic, partial curve] | –
9 | CCn1c(=O)c2ccccc2n(Cc2cccc([N+](=O)[O-])c2)c1=O | – | inactive: -16.5%
10 | COc1ccc(C(=O)CSc2ccc(-c3ccc(C)cc3)nn2)cc1 | inconclusive: 29.1 µM [cytotoxic, single point] | –
11 | O=c1[nH]c(=O)n(-c2ccc(F)cc2)c2c1C(C(F)(F)F)(C(F)(F)F)N=C(c1ccc(F)cc1)N2 | inconclusive: 8.2 µM [cytotoxic, partial curve, poor fit] | –
12 | COc1cccc(/C=C/C(=O)OCC(=O)N2c3ccccc3CC2C)c1OC (stereo not given) | – | inactive: -8.85%
13 | CCN(CC)S(=O)(=O)c1ccc(C)c(NC(=O)COc2ccc(Cl)cc2Br)c1 | inconclusive: 5.8 µM [cytotoxic, full curve] | –
14 | c1ccc2cc(CSCc3nc4ccccc4[nH]3)ccc2c1 | inconclusive: 18.4 µM [cytotoxic, single point] | –
15 | C[C@H](CO)N1C[C@H](C)[C@@H](CN(C)S(C)(=O)=O)Oc2ccc(NC(=O)CCN3CCOCC3)cc2C1=O | inconclusive: 29.1 µM [rising, single point] | –
16 | COc1ccc(OC)c(Nc2nc(-c3cccs3)cs2)c1 | inconclusive: 20.6 µM [cytotoxic, partial curve, poor fit] | –
17 | COc1ccc(C(=O)NNC(=O)Cc2nc3nc(C)cc(C)n3n2)cc1 | – | inactive: 5.43%
18 | CCOc1ccccc1-c1noc(CSc2nnc(-c3ccccc3)n2-c2ccc(F)cc2)n1 | inconclusive: 29.1 µM [cytotoxic, single point] | –
19 | Cc1nn2c(=O)cc(COC(=O)Cc3ccccc3)nc2s1 | – | inactive: -8.26%
20 | CSc1ccc(/C=C/C(=O)c2ccc(NC(C)=O)cc2)cc1 | – | inactive: -2.07%
21 | Cc1ccc(-c2csc3ncnc(N4CCN(C(=O)c5ccco5)CC4)c23)cc1 | active: 20.6 µM | –
22 | CC(Oc1ccc(Cl)cc1)C(=O)Nc1ccccc1N1CCOCC1 (stereo not given) | inconclusive: 16.4 µM [cytotoxic, single point] | –
23 | COC(=O)c1c(NC(=O)c2nc(SCc3ccc(F)cc3)ncc2Cl)sc2c1CCCC2 | – | inactive: 10.5%
24 | O=C(NCC(c1ccco1)N1CCN(c2ccccc2F)CC1)C(=O)NC1CCCC1 (stereo not given) | inconclusive: 7.31 µM [cytotoxic, partial curve, poor fit] | –

19 structures out of the list, ordered by length of the SMILES, falling.
Row | Compound | Potency | activity change, negative = cytotoxicity
15 | C[C@H](CO)N1C[C@H](C)[C@@H](CN(C)S(C)(=O)=O)Oc2ccc(NC(=O)CCN3CCOCC3)cc2C1=O | inconclusive: 29.1 µM [rising, single point] | –
11 | O=c1[nH]c(=O)n(-c2ccc(F)cc2)c2c1C(C(F)(F)F)(C(F)(F)F)N=C(c1ccc(F)cc1)N2 | inconclusive: 8.2 µM [cytotoxic, partial curve, poor fit] | –
6 | Cc1cc(NS(=O)(=O)c2ccc(NC(=O)CCSc3ccc(F)cc3)cc2)nc(C)n1 | – | inactive: 5.81%
23 | COC(=O)c1c(NC(=O)c2nc(SCc3ccc(F)cc3)ncc2Cl)sc2c1CCCC2 | – | inactive: 10.5%
2 | O=[N+]([O-])c1ccc(CSc2ccc(S(=O)(=O)N3CCCCCC3)cn2)cc1 | inconclusive: 29.1 µM [cytotoxic, single point] | –
13 | CCN(CC)S(=O)(=O)c1ccc(C)c(NC(=O)COc2ccc(Cl)cc2Br)c1 | inconclusive: 5.8 µM [cytotoxic, full curve] | –
24 | O=C(NCC(c1ccco1)N1CCN(c2ccccc2F)CC1)C(=O)NC1CCCC1 (stereo not given) | inconclusive: 7.31 µM [cytotoxic, partial curve, poor fit] | –
5 | COc1ccc(-n2ncc(C(C)NS(=O)(=O)c3cc(C)sc3C)c2C)cc1 (stereo not given) | inconclusive: 20.6 µM [cytotoxic, single point] | –
9 | CCn1c(=O)c2ccccc2n(Cc2cccc([N+](=O)[O-])c2)c1=O | – | inactive: -16.5%
1 | CCN1/C(=C/C(C)=C/c2sc3ccccc3[n+]2CC)Sc2ccccc21 | active: 20.6 µM and inconclusive: 29.1 µM [cytotoxic, single point] | –
12 | COc1cccc(/C=C/C(=O)OCC(=O)N2c3ccccc3CC2C)c1OC (stereo not given) | – | inactive: -8.85%
17 | COc1ccc(C(=O)NNC(=O)Cc2nc3nc(C)cc(C)n3n2)cc1 | – | inactive: 5.43%
8 | COC(=O)n1c(=O)oc2cc(S(=O)(=O)N3CCCCC3)ccc21 | inconclusive: 20.6 µM [cytotoxic, partial curve] | –
10 | COc1ccc(C(=O)CSc2ccc(-c3ccc(C)cc3)nn2)cc1 | inconclusive: 29.1 µM [cytotoxic, single point] | –
22 | CC(Oc1ccc(Cl)cc1)C(=O)Nc1ccccc1N1CCOCC1 (stereo not given) | inconclusive: 16.4 µM [cytotoxic, single point] | –
19 | Cc1nn2c(=O)cc(COC(=O)Cc3ccccc3)nc2s1 | – | inactive: -8.26%
14 | c1ccc2cc(CSCc3nc4ccccc4[nH]3)ccc2c1 | inconclusive: 18.4 µM [cytotoxic, single point] | –
16 | COc1ccc(OC)c(Nc2nc(-c3cccs3)cs2)c1 | inconclusive: 20.6 µM [cytotoxic, partial curve, poor fit] | –
7 | Cc1ccc(CNc2ccc3c(c2)OCO3)cc1 | inconclusive: 9.2 µM [cytotoxic, partial curve] | –

Next part:

Row | Compound | Potency | activity change, negative = cytotoxicity
25 | COc1ccc(CN(CC2CCCO2)C(=O)CN2C(=O)C(C)Oc3ccc(C)cc32)cc1OC (stereo not given) | inconclusive: 29.1 µM [cytotoxic, single point] | –
26 | C=CCn1c(NCc2ccc(OC)cc2O)nc2ccccc21 | – | inactive: 0.633%
27 | Cc1ccc(S(=O)(=O)NC(C(=O)N2CCOCCOCCOCCOCC2)C(C)C)cc1 (stereo not given) | inconclusive: 29.1 µM [rising, single point] | –
28 | Cc1cccc(NC(=O)CSc2cc(C)c(C#N)c3nc4ccccc4n23)c1 | – | inactive: 12.5%
29 | CC(C)Cc1nnc(NC(=O)CCC(=O)NC2CCCC2)s1 | – | inactive: 1.2%
30 | CN(C)C(=O)Oc1ccc[n+](C)c1 | – | inactive: 15.1%
31 | COc1ccc(OC)c(Nc2cc(-c3ccccc3)nc(N)n2)c1 | active: 1.3 µM | –
32 | COC(=O)c1c(-c2snnc2C)n[nH]c1C | inconclusive: 8.2 µM [rising, partial curve, poor fit] | –
33 | CCN(C)C1CN(Cc2cn(Cc3cc(C)cc(C)c3)nn2)S(=O)(=O)C1 (stereo not given) | inconclusive: 29.1 µM [rising, single point] | –
34 | COc1ccccc1C(=O)COC(=O)c1cccs1 | inconclusive: 25.9 µM [rising, single point] | –
35 | O=c1c2cc(Br)ccc2[nH]c(=S)n1Cc1ccccn1 | active: 16.4 µM | –
36 | O=C(CCc1ccccc1)Nc1cc2c(cc1Cl)OCCO2 | active: 20.6 µM | –
37 | COc1c(N)c2ccccc2[nH]c1=O | inconclusive: 20.6 µM [cytotoxic, single point] | –
38 | CCCn1c(N)c(N(CCOC)C(=O)CSCC(=O)Nc2ccc(OC)cc2)c(=O)[nH]c1=O | inconclusive: 18.4 µM [rising, single point] | –
39 | Cn1c(=O)c2[nH]c(C3CC=CCC3)nc2n(C)c1=O (stereo not given) | – | inactive: 0%
40 | O=S(=O)(NCC(c1ccc2c(c1)OCO2)N1CCOCC1)c1ccccc1 (stereo not given) | – | inactive: 4.24%
41 | COc1ccccc1NC(=O)C1=C(C)Nc2nc(CCCO)nn2C1c1cccc(O)c1 (stereo not given) | inconclusive: 29.1 µM [rising, single point] | –
42 | Cc1nnsc1Sc1ccccc1C(=O)O | inconclusive: 29.1 µM [rising, partial curve, poor fit] | –
43 | O=C(CN1C(=O)CCC1=O)Nc1ccc(Cc2ccc(NC(=O)CN3C(=O)CCC3=O)cc2)cc1 | inconclusive: 16.4 µM [rising, single point] | –
44 | Cc1ccc(CC2(C)C(=O)Nc3c(Cl)ccc(Cl)c32)cc1 (stereo not given) | inconclusive: 13 µM [cytotoxic, partial curve] | –
45 | CN1CCN(CCCNC(=O)c2cc3c(=O)n(C)c4ccccc4c3s2)CC1 | inconclusive: 13 µM [cytotoxic, partial curve, poor fit] | –
46 | O=S(=O)(NCc1ccc(F)cc1)c1ccc(Br)cc1Br | inconclusive: 16.4 µM [cytotoxic, single point] | –
47 | Cc1ccc(S(=O)(=O)N2CCCc3cc(NS(=O)(=O)c4cc(F)ccc4F)ccc32)cc1 | – | inactive: -15.4%
48 | CCN(Cc1nc2ccccc2c(=O)[nH]1)C(=O)COc1ccccc1-c1ccccc1 | inconclusive: 23.1 µM [cytotoxic, single point] | –

Row | Compound | Potency | activity change, negative = cytotoxicity
49 | CCOc1ccc(C(C(=O)Nc2ccc(F)cc2)N(C(=O)Cn2nnc3ccccc32)C2CC2)cc1 (stereo not given) | active: 23.1 µM | –
50 | CC(C)N(Cc1nccn1C)C(=O)c1cc(COc2ccc3ncccc3c2)on1 | – | inactive: -11.7%
51 | CNS(=O)(=O)c1cccc(C(=O)OCC(=O)Nc2ccc(Cl)cc2F)c1 | inconclusive: 23.1 µM [rising, partial curve, poor fit] | –
52 | CC(C)c1ccc(NC(=O)CC2NCCNC2=O)cc1 (stereo not given) | – | inactive: -0.478%
53 | O=C(CSc1nnc(COc2ccccc2)n1Cc1ccco1)NCc1ccco1 | – | inactive: 5.42%
54 | CCCC(=O)Nc1cc(C(=O)NCc2ccccc2)ccc1S(=O)(=O)c1ccc(Cl)cc1 | – | inactive: 5.51%
55 | COc1cc(C2CC(=O)c3cnc(N4CCN(CCO)CC4)nc3C2)cc(OC)c1OC (stereo not given) | inconclusive: 20.6 µM [cytotoxic, single point] | –
56 | CCN(CC(=O)Nc1ccc([N+](=O)[O-])cc1OC)c1ccccc1 | inconclusive: 32.6 µM [cytotoxic, single point] | –
57 | Cn1c(=O)c(=O)n(C)c2cc(S(=O)(=O)N3CCN(c4ccc(F)cc4)CC3)ccc21 | inconclusive: 18.4 µM [rising, single point] | –
58 | Cc1ccc(S(=O)(=O)N2CCOCC2)cc1NC(=O)CSc1nnc2cc(C)c3ccccc3n12 | inconclusive: 6.51 µM [cytotoxic, partial curve] | –
59 | CCc1nnc(NC(=O)c2ccc(S(=O)(=O)N(CC(C)C)CC(C)C)cc2)o1 | inconclusive: 25.9 µM [cytotoxic, single point] | –
60 | Cc1ccc(/C=N/NC(=O)CNC(=O)Cc2ccccc2)o1 | – | inactive: -0.394%
61 | CC(=O)CCc1c(C)c2cccc(C)c2[nH]c1=O | inconclusive: 29.1 µM [cytotoxic, single point] | –
62 | COC(=O)N/N=C/c1ccc(-c2cc(Cl)cc(Cl)c2)o1 | inconclusive: 29.1 µM [cytotoxic, single point] | –
63 | COc1cccc(/C=C/C(=O)OCC(=O)NC2CCCCCC2)c1 | inconclusive: 29.1 µM [rising, partial curve, poor fit] | –
64 | COc1ccc(-c2nc(-c3ccccc3)nc(Cl)c2C#N)cc1 | inconclusive: 20.6 µM [cytotoxic, single point] | –
65 | CCCCNc1nc(-c2ccccc2)c(C(=O)OCC)cc1C#N | active: 18.4 µM | –
66 | Cc1cc(C)nc(N=Nc2c(O)n(Cc3ccc(Cl)cc3)c3ccccc23)n1 | inconclusive: 11.6 µM [cytotoxic, partial curve, poor fit] | –
67 | CC(C)OCc1ccc(C(=O)N2CCN(S(=O)(=O)c3ccc(Br)s3)CC2)cc1 | inconclusive: 16.4 µM [cytotoxic, single point] | –
68 | CCOC(=O)N1CCC(NC(=O)c2cc3c(-c4ccc(OC)c(OC)c4)nn(C)c3s2)CC1 | inconclusive: 20.6 µM [cytotoxic, single point] | –
69 | CC(C)c1ccc(NC(=O)Nc2nc(C(N)CCc3ccccc3)cs2)cc1 (stereo not given) | inconclusive: 29.1 µM [cytotoxic, single point] | –
70 | O=C(CCN1C(=O)C2C3CCC(C3)C2C1=O)OCC(=O)c1ccc(Cl)cc1 (stereo not given) | inconclusive: 32.6 µM [rising, single point] | –
